Source: patent US20090123463A1
These are yes or no findings as the source states them, for the method shown. Some entries that bind do so weakly or less than the wild type.

Protein sequences, listed by entry. Tags and fused reporters are not part of them. Residues count along the entry.
UniProt Q05397, residues 693-1052: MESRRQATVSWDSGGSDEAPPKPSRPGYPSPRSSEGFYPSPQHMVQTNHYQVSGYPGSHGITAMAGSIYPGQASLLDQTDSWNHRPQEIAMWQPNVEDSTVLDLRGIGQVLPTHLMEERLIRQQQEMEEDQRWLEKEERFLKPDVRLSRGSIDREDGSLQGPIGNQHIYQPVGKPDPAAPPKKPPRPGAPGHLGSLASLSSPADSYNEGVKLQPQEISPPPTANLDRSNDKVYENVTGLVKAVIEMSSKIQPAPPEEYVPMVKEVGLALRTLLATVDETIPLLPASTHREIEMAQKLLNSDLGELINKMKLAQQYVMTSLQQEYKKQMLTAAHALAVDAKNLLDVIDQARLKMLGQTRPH

Key:
[1] = molecular target: C-terminal domain of focal adhesion kinase (FAK-CD), baculoviral (human) (UniProt Q05397); assay: phage display, baculoviral FAK-CD coated to a plate
[2] = molecular target: C-terminal domain of focal adhesion kinase (FAK-CD), baculoviral (human) (UniProt Q05397); assay: phage display
[3] = molecular target: C-terminal domain of focal adhesion kinase (FAK-CD), baculoviral (human) (UniProt Q05397); assay: phage display; Western blot and phage overlay (FIG. 2)
[4] = molecular target: C-terminal domain of focal adhesion kinase (FAK-CD), baculoviral (human) (UniProt Q05397); assay: Western blots/phage overlays (FIG. 2)

Measured: binding

B1: Peptide-35 (…; SEQ ID NO: 1) (peptide)
peptide: WHWQWTPWSIQP
binds: all assays above
